Library screen at single concentrations

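Phenotypic screen: M. tuberculosis growth, glucose 7H9 medium, 3 days; the read-out is not stated. Compounds at 50 µM. Higher reads as more growth inhibition (inferred: compounds with an IC50 in retests scored well above the rest). About 69,000 compounds were tested under these conditions; 1.1% (about 760) showed 50% or more at least once.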

Each number is a percent effect as filed.
How 0% and 100% were set is not recorded. Most values in the screen are low, and negative values occur.
Compounds were drawn at random from those tested, without regard to their results.
Two or more numbers in one place are separate tests of the same structure; such repeats can differ widely.

- Cc1nc(NS(=O)(=O)c2cc(Br)ccc2C)no1 : 10.45% & 5.592%
- OCC1(NCc2cnc(-c3ccsc3)s2)CCOCC1 : -22.25%
- Cc1cccc(CSc2ncc(Cl)c(C(=O)O)n2)c1 : -2.385%
- CCS(=O)(=O)N1CCc2c(cnc(-c3cccnc3)c2C(=O)O)C1 : -24.88%
- Cc1ccc(CN2CCN(C(=O)CCc3nc(Cl)n[nH]3)CC2=O)cc1 : 7.392%
- N#Cc1cn(C2CC2)c(=O)n(CC(O)c2ccccc2C(F)(F)F)c1=O (configuration not stated) : 4.876%
- Cc1cnccc1NCCNC(=O)C1CCCN(Cc2ccco2)C1 (configuration not stated) : -19.62%
- COc1c(Cl)cccc1NCc1csc(NC(C)=O)n1 : 26.26%
- Cc1nc(NC(=O)N(C)Cc2ccsc2)nn1C : 13.27%
- CCCNc1ncc(-c2cc(C3CC3)nc(N)c2C#N)cn1 : -0.6756%
- CCOc1nc2cnccc2n(CC(=O)Nc2ccccc2OC)c1=O : -11.68%
- COc1c(CNCc2cccnc2OC(C)C)c(C(C)C)nn1C : 4.379%
- N#Cc1ccc(S(=O)(=O)NC(=O)COc2ccc3c(c2)CCC3)cc1 : -35.22%
- O=C(O)C(F)(F)F.O=C(O)C(F)(F)F.[H][C@@]12COC[C@]1([H])[C@@H](OCCN(C)C)CN2Cc1ccco1 : 12.34%
- Cc1ccc(NC(=O)C(C)N2CCCN(c3nccs3)CC2)c(C)c1 (configuration not stated) : -28.4%
- O=C(N1CCCC(n2cncn2)C1)C1(c2ccccc2F)CCCC1 (configuration not stated) : 7.158%
- CC(C)NC(=O)c1ccn(COc2c(Cl)cccc2Cl)n1 : 38.55%
- COc1ccccc1C(NC(=O)CN(C)C(C)C)c1noc(C)n1 (configuration not stated) : -3.913% & 4.612%
- CCc1nc(CC2CN(c3ncnc4nc(C)cc(C)c34)CCO2)no1 (configuration not stated) : 26.03%
- CC(C(=O)Nc1ccon1)n1ccc(C(F)(F)F)n1 (configuration not stated) : -12.69%
- CCCc1nc(C)c(C(=O)NCCn2nc3ccccn3c2=O)s1 : -14.75%
- COc1ccnc(N2CCN(C(=O)c3csc(C)n3)CC2)n1 : 5.216% & -16.64%
- Cc1cc(NC(=O)NCCc2ccccc2)n(C)n1 : 19.43%
- Cc1ccc(OCc2nc(CNCC3CN(C)CCO3)cs2)cc1 (configuration not stated) : 27.51%
- Cc1ccc(-c2nnc(CCC(=O)NCc3cn(C)nc3C)o2)s1 : 15.26%
- COc1ccc2[nH]cc(-c3ccnc(NC4CCCC4)n3)c2c1 : 26.95%
- CC(C)N1CCC(CNCc2c[nH]nc2C(C)(C)C)C1 (configuration not stated) : 45.4%
- COc1ccc(NC(=O)N(C)Cc2ccc(Br)o2)cn1 : -3.697%
- CCOC(=O)CN1CCC2(CC1)CC(NC(=O)c1ccccn1)CO2 (configuration not stated) : -6.001% & 7.504%
- COc1ccccc1C(C(=O)O)N1CCCN(C2CCCC2)CC1 (configuration not stated) : -24.64%
- CCn1c(CN(C)CC(=O)N(C)C)nc2c(F)cccc21 : -31%
- CN(CCCOc1ccccc1Cl)C(=O)CN1CCCCCC1=O : -9.016%
- CC(C)c1ncc(C(=O)N2CCOCC2CC(=O)c2ccco2)s1 (configuration not stated) : -12.27%
- c1ccc2nc(CN3CCCC3c3noc(C4CC4)n3)ccc2c1 (configuration not stated) : 30.46%

Some entries from above, unchanged:

structure	Percent Effect
c1ccc2nc(CN3CCCC3c3noc(C4CC4)n3)ccc2c1 (configuration not stated)	30.46
COc1ccc2[nH]cc(-c3ccnc(NC4CCCC4)n3)c2c1	26.95

Data taken from ChEMBL document CHEMBL3988442, “University of Dundee, Small-Polar-MMV Screening Library” (2021).